# From PubChem BioAssay AID504444 (National Center for Advancing Translational Sciences (NCATS), 2011)
# The campaign covered roughly 360,000 compounds. About 7,500 (2.1%) were called active. Inconclusive results, whose numbers are uncertain, are shown with a selection of clear calls. The call rests on the fitted dose curve; in most records, active means well fitted inhibition curve with a large enough effect; inconclusive means small, poorly fitted or top-dose-only effect, or effect the other way; inactive means flat fitted curve, though single readings scatter. Where the call is inconclusive, the potency comes from a doubtful curve fit.
# Test: Nrf2 qHTS screen for inhibitors; further: nearly all actives have a fitted effect of over 60% in size
# Details: A549 ARE-Fluc reporter, luciferase luminescence, 18-24 h; series mostly up to 46 µM
# Summary of the method: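 A549 ARE_Fluc cells (5000/well, 5% FBS OPTI-MEM) pre-incubated 2 h, then treated with compounds 18-24 h at 37C/5% CO2 in concentration-response. CellTiter-Fluor viability read first; BugLite luciferase luminescence after 15 min at room temperature gives Nrf2 activity.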
# Potency means the concentration at half of the fitted maximal effect.
row,Structure (SMILES),Potency
1,CCc1cccc(NS(=O)(=O)c2c(C)nc3scc(C)n3c2=O)c1,"inconclusive: 10.3 µM [falling, partial curve]"
2,Cc1ccc(C)c(CSc2nc(-c3ccccc3F)nc3c2Cc2c(CO)cnc(C)c2O3)c1,"inconclusive: 25.9 µM [activator, single point]"
3,COc1cccc(NC(=O)Nc2nccc(C)n2)c1,"inconclusive: 0.411 µM [activator, partial curve, poor fit]"
4,CN(C)S(=O)(=O)N(Cc1ccc(Br)cc1)c1ccccc1,"inconclusive: 20.6 µM [falling, partial curve, poor fit]"
5,COC(=O)c1cccc(CSc2nc3ccccc3[nH]2)c1,"inconclusive: 3.26 µM [activator, partial curve, poor fit]"
6,COc1ccccc1OC(C)C(=O)Nc1cccc(-c2nc3ccccc3s2)c1 (stereo not drawn),inactive
7,COc1ccc(-n2nc(C(=O)Nc3ccccn3)c3c4ccccc4n(C)c3c2=O)cc1,"inconclusive: 0.13 µM [activator, full curve, poor fit]"
8,CC(C)CCNC(=O)c1cc2c(s1)-c1ccccc1S(=O)(=O)C2,inactive
9,CCOC(=O)c1ccc(NC(=O)c2cnc3c(-c4ccc(F)cc4)c(C)nn3c2C)cc1,"inconclusive: 29.1 µM [activator, single point]"
10,COc1ccc(NC(=O)c2scc(S(=O)(=O)C(C)C)c2N)cc1,"inconclusive: 18.4 µM [activator, partial curve]"
11,c1ccc(COc2ccc(OCCCn3cncn3)cc2)cc1,"inconclusive: 3.66 µM [activator, full curve]"
12,Cc1ccc(-c2ccc(/C=N\NC(=O)C3C(=O)NCC3c3ccccc3)o2)cc1Cl (stereo not drawn),"inconclusive: 29.1 µM [falling, single point]"
13,COc1ccc(S(=O)(=O)N2CCN(c3cccc(C)c3C)CC2)cc1,"inconclusive: 32.6 µM [falling, single point]"
14,Cc1ccnc(NC(=O)CNC(=O)COc2ccccc2)c1,"inconclusive: 18.4 µM [activator, partial curve]"
15,Cc1onc(-c2ccccc2)c1C(=O)Nc1nnc(-c2ccncc2)s1,inactive
16,O=C(NN=C1CCCC1)c1cccc(Br)c1,"inconclusive: 0.103 µM [activator, full curve, poor fit]"
17,COc1ccc(C(C(=O)NC2CCCCC2)N(Cc2ccco2)C(=O)c2snc(C(N)=O)c2N)cc1 (stereo not drawn),"inconclusive: 29.1 µM [falling, single point]"
18,Cn1cc(C(=O)c2ccc(Cl)cc2Cl)cc1C(=O)N/N=C(\N)COc1cccc(C(F)(F)F)c1,"inconclusive: 29.1 µM [falling, single point]"

# 3 compounds out of the list, ordered by SMILES length, rising:
row,Structure (SMILES),Potency
11,c1ccc(COc2ccc(OCCCn3cncn3)cc2)cc1,"inconclusive: 3.66 µM [activator, full curve]"
15,Cc1onc(-c2ccccc2)c1C(=O)Nc1nnc(-c2ccncc2)s1,inactive
9,CCOC(=O)c1ccc(NC(=O)c2cnc3c(-c4ccc(F)cc4)c(C)nn3c2C)cc1,"inconclusive: 29.1 µM [activator, single point]"
